Consider one molecule from paper PMC11129471.

Sequences of proteins named here, by UniProt entry; tags and fusion partners are left off.
UniProt Q9UKB1: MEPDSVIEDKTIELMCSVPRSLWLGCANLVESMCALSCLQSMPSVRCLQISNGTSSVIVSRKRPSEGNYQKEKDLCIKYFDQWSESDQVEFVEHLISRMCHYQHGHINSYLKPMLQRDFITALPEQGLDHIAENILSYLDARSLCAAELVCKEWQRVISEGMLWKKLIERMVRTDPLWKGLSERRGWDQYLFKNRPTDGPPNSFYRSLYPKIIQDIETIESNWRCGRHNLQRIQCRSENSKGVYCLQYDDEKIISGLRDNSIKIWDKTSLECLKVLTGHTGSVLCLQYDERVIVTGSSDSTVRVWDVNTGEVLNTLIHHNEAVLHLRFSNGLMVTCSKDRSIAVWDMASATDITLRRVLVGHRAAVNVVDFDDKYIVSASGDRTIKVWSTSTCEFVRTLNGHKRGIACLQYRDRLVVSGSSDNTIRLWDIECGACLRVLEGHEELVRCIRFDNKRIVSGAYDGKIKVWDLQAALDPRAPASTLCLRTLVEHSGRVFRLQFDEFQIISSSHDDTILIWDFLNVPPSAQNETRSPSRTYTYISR

These are yes or no findings as the source states them, for the method shown. Binding seen in cells or lysates may run through a third protein. Some entries that bind do so weakly or less than the wild type.

For the assay, the target named is FBXW11 (UniProt Q9UKB1). As to the kind of experiment: co-IP; human NPC lysate (25 mM Tris-HCl pH 7.5, 150 mM NaCl, 0.5% NP-40, protease and phosphatase inhibitors); protein agarose beads and primary antibodies; SDS-PAGE and blot.

B1: TAK1 (protein, UniProt O43318 1-606)
chain: MSTASAASSSSSSSAGEMIEAPSQVLNFEEIDYKEIEVEEVVGRGAFGVVCKAKWRAKDVAIKQIESESERKAFIVELRQLSRVNHPNIVKLYGACLNPVCLVMEYAEGGSLYNVLHGAEPLPYYTAAHAMSWCLQCSQGVAYLHSMQPKALIHRDLKPPNLLLVAGGTVLKICDFGTACDIQTHMTNNKGSAAWMAPEVFEGSNYSEKCDVFSWGIILWEVITRRKPFDEIGGPAFRIMWAVHNGTRPPLIKNLPKPIESLMTRCWSKDPSQRPSMEEIVKIMTHLMRYFPGADEPLQYPCQYSDEGQSNSATSTGSFMDIASTNTSNKSDTNMEQVPATNDTIKRLESKLLKNQAKQQSESGRLSLGASRGSSVESLPPTSEGKRMSADMSEIEARIAATTAYSKPKRGHRKTASFGNILDVPEIVISGNGQPRRRSIQDLTVTGTEPGQVSSRSSSPSVRMITTSGPTSEKPTRSHPWTPDDSTDTNGSDNSIPMAYLTLDHQLQPLAPCPNSKESMAVFEQHCKMAQEYMKVQTEIALLLQRKQELVAELDQDEKDQQNTSRLVQEHKKLLDENKSLSTYYQQCKKQLEVIRSQQQKRQGTS
For B1, the binding result was “binds”.
